These are literature values, as cited in paper PMC11267547, “Advancing drug discovery through assay development: a survey of tool compounds within the human solute carrier superfamily” (Frontiers in Pharmacology, 2024).

Structures are written as SMILES.

One series has as its system CYP3A4. Conditions: cited from earlier work.
The subject of the next series is KCNH2. The following applies: cited from earlier work.

Consider `Nc1nc2ccc(OC(F)(F)F)cc2s1` [Riluzole], for which the other_targets_act in the series on CYP3A4 is listed as 5.66, 5.0, 4.6, 4.6, 4.6, 4.6, 4.6; with KCNH2 it was 5.66, 5.0, 4.6, 4.6, 4.6, 4.6, 4.6.
